Measurements reported in PubChem BioAssay AID1259308 (NCATS, 2017).

- Test: 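Knock-downs that increase output of a recombinant reporter protein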 (primary screen)
- Cell system: human HEK293 embryonic kidney cells stably expressing firefly luciferase (HEK-CMV-Luc2-Hygro)
- Reagents: single siRNA against human genes, 0.8 pmol siRNA per well
- Duration: 72 h
- Measured: 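Reporter luminescence and viable-cell signal on separate replicate plates, given as percent of non-targeting control and median/MAD z-scores, plus per-cell luciferase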
- Direction: total luciferase, z-score: higher = more reporter protein produced
- Call rule: 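An siRNA counts as active if its total luciferase robust z-score exceeds 3; genes with two or more such siRNAs out of three were retested with fresh siRNAs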
- Calls: active = raised luciferase; inactive = no rise
The deposit covers about 59,000 reagents; this is an unselected part. Of all reagents, about 1,510 (2.6%) are marked active. 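Calls use total luciferase alone and ignore viability, so some active siRNAs may act by altering cell number.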 A number with no mark means an inactive call. Reagents against one gene are numbered here. Further read-outs or replicates are left out here. No sequences are given here.

For RFESD #1, how do the results read?
total luciferase, z-score: -0.136

How did the screen score RFESD #2?
total luciferase, z-score: -0.409

For RFESD #3, what does the deposit list?
total luciferase, z-score: -0.959

For SPATA31E1 #1, how do the results read?
total luciferase, z-score: -0.249

How did the screen score SPATA31E1 #2?
total luciferase, z-score: -0.14

What did the screen give for SPATA31E1 #3?
total luciferase, z-score: 2.73

For FHIP1B #1, how do the results read?
total luciferase, z-score: 1.17

With FHIP1B #2, how do the results read?
total luciferase, z-score: -0.673

Which result is listed for FHIP1B #3?
total luciferase, z-score: 2.97

With LRTM1 #1, what was measured?
total luciferase, z-score: -0.534

How did the screen score LRTM1 #2?
total luciferase, z-score: -0.12

How did the screen score LRTM1 #3?
total luciferase, z-score: -1.98

Entries above whose gene name begins with L or l:
LRTM1 #1 — total luciferase, z-score = -0.534
LRTM1 #2 — total luciferase, z-score = -0.12
LRTM1 #3 — total luciferase, z-score = -1.98

The listing continues:
What is on record for PYCR1 #1?
total luciferase, z-score: 3.93 (active)

With PYCR1 #2, what was measured?
total luciferase, z-score: 0.538

With PYCR1 #3, what was measured?
total luciferase, z-score: -0.536

With C10orf143 #1, how do the results read?
total luciferase, z-score: 0.246

What is on record for C10orf143 #2?
total luciferase, z-score: -0.202

How did the screen score C10orf143 #3?
total luciferase, z-score: -0.0352

With C2orf42 #1, what does the deposit list?
total luciferase, z-score: 0.0897

For C2orf42 #2, how do the results read?
total luciferase, z-score: -1.27

How did the screen score C2orf42 #3?
total luciferase, z-score: -0.0362
